Test results reported in article PMC8211105.
Results are given in words; binding and its absence hold for the method and conditions named. Some binding calls cover weakened binding; strength is not graded here. Where a sequence is shown, tags or fusion partners need not be part of it.

How the values were obtained:
[1] = molecular target: MxiN, BACTH fusion (S. flexneri) (UniProt Q6XVX6); test: two-hybrid; bacterial adenylate cyclase two-hybrid (BACTH) in cyaA- E. coli BTH101; T18 and T25 fused to N- or C-terminus, eight permutations; read on LB X-gal and MacConkey maltose plates, 30°C; positive if at least one permutation is positive
[2] = molecular target: MxiK, BACTH fusion (S. flexneri) (UniProt P0A227); test: as above

Binder	binding [1]	binding [2]
MxiN, BACTH fusion (protein, UniProt Q6XVX6 1-231) MKVCNMQKGTLPVSRHHAYDGVVIKRIEKELCKTIKDRDTESKKKAICVIKDATKKAESLRIDAVCDGYQIGIQTAFEHIIDYICEWKLKQNENRRNIEDYITSLLSENLHDERIISTLLEQWLSSLRNTVTELKVVLPKCNLALRKKLELDLHKYRSDVKIILKYSEGNNYIFCSGNQVVEFSPQDVISGVKIELAEKLTKNDKKYFKELAHKKLRQIAEDLLKENPVND	binds	
MxiK, BACTH fusion (protein, UniProt P0A227 1-175) MIRMDGIYKKYLSIIFDPAFYINRNRLNLPSELLENGVIRSEINNLIINKYDLNCDIEPLSGVTAMFVANWNLLPAVAYFIGSQESRLINHSEMVISYYGGKISKQGEAAIRSGFWHLIAWKENISVGIYERINLLFNPIALEGNYTPVERNLSRLNEGMQYAKRHFTGIQTSCL		no binding
